T1: SH2 (maize endosperm AGPase large subunit, encoded by shrunken-2) (maize) (UniProt P55241)
T1 sequence (looked up): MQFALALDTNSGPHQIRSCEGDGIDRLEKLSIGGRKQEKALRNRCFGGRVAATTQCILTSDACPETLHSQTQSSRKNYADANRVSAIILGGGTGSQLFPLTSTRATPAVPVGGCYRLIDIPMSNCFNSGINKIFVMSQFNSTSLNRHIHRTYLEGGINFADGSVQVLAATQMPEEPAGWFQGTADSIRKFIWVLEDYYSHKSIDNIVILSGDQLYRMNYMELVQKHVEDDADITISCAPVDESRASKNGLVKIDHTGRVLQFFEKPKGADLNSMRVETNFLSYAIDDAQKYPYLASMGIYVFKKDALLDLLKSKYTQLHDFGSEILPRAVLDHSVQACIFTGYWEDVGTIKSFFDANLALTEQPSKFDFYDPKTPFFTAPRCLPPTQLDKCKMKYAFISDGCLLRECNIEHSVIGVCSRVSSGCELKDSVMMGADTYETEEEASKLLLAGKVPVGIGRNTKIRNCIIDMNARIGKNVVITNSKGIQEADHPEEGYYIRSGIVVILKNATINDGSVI

B1: BT2 (wild type maize endosperm AGPase small subunit, encoded by brittle-2) (enzyme)
chain: MDMALASKASPPPWNATAAEQPIPKRDKAAANDSTYLNPQAHDSVLGIILGGGAGTRLYPLTKKRAKPAVPLGANYRLIDIPVSNCLNSNISKIYVLTQFNSASLNRHLSRAYGSNIGGYKNEGFVEVLAAQQSPDNPNWFQGTADAVRQYLWLFEEHNVMEFLILAGDHLYRMDYEKFIQAHRETNADITVAALPMDEKRATAFGLMKIDEEGRIIEFAEKPKGEQLKAMMVDTTILGLDDVRAKEMPYIASMGIYVFSKDVMLQLLREQFPEANDFGSEVIPGATSIGKRVQAYLYDGYWEDIGTIAAFYNANLGITKKPIPDFSFYDRFAPIYTQPRHLPPSKVLDADVTDSVIGEGCVIKNCKINHSVVGLRSCISEGAIIEDSLLMGADYYETEADKKLLAEKGGIPIGIGKNSCIRRAIIDKNARIGDNVKILNADNVQEAAMETDGYFIKGGIVTVIKDALLPSGTVI
B2: BT2-TI (BT2 comprising the TI mutation, threonine 462 to isoleucine) (enzyme)
chain: MDMALASKASPPPWNATAAEQPIPKRDKAAANDSTYLNPQAHDSVLGIILGGGAGTRLYPLTKKRAKPAVPLGANYRLIDIPVSNCLNSNISKIYVLTQFNSASLNRHLSRAYGSNIGGYKNEGFVEVLAAQQSPDNPNWFQGTADAVRQYLWLFEEHNVMEFLILAGDHLYRMDYEKFIQAHRETNADITVAALPMDEKRATAFGLMKIDEEGRIIEFAEKPKGEQLKAMMVDTTILGLDDVRAKEMPYIASMGIYVFSKDVMLQLLREQFPEANDFGSEVIPGATSIGKRVQAYLYDGYWEDIGTIAAFYNANLGITKKPIPDFSFYDRFAPIYTQPRHLPPSKVLDADVTDSVIGEGCVIKNCKINHSVVGLRSCISEGAIIEDSLLMGADYYETEADKKLLAEKGGIPIGIGKNSCIRRAIIDKNARIGDNVKILNADNVQEAAMETDGYFIKGGIVIVIKDALLPSGTVI
B3: MP (mosaic small subunit: N-terminal part of BT2 and C-terminal part of the potato tuber AGPase small subunit) (enzyme)
chain: MDMALASKASPPPWNATAAEQPIPKRDKAAANDSTYLNPQAHDSVLGIILGGGAGTRLYPLTKKRAKPAVPLGANYRLIDIPVSNCLNSNISKIYVLTQFNSASLNRHLSRAYGSNIGGYKNEGFVEVLAAQQSPDNPNWFQGTADAVRQYLWLFEEHNVMEFLILAGDHLYRMDYEKFIQAHRETNADITVAALPMDEKRATAFGLMKIDEEGRIIEFAEKPQGEQLQAMKVDTTILGLDDKRAKEMPFIASMGIYVISKDVMLNLLRDKFPGANDFGSEVIPGATSLGMRVQAYLYDGYWEDIGTIEAFYNANLGITKKPVPDFSFYDRSAPIYTQPRYLPPSKMLDADVTDSVIGEGCVIKNCKIHHSVVGLRSCISEGAIIEDSLLMGADYYETDADRKLLAAKGSVPIGIGKNCHIKRAIIDKNARIGDNVKIINKDNVQEAARETDGYFIKSGIVTVIKDALIPSGIII
B4: MP-TI (MP having the TI mutation) (enzyme)
chain: MDMALASKASPPPWNATAAEQPIPKRDKAAANDSTYLNPQAHDSVLGIILGGGAGTRLYPLTKKRAKPAVPLGANYRLIDIPVSNCLNSNISKIYVLTQFNSASLNRHLSRAYGSNIGGYKNEGFVEVLAAQQSPDNPNWFQGTADAVRQYLWLFEEHNVMEFLILAGDHLYRMDYEKFIQAHRETNADITVAALPMDEKRATAFGLMKIDEEGRIIEFAEKPQGEQLQAMKVDTTILGLDDKRAKEMPFIASMGIYVISKDVMLNLLRDKFPGANDFGSEVIPGATSLGMRVQAYLYDGYWEDIGTIEAFYNANLGITKKPVPDFSFYDRSAPIYTQPRYLPPSKMLDADVTDSVIGEGCVIKNCKIHHSVVGLRSCISEGAIIEDSLLMGADYYETDADRKLLAAKGSVPIGIGKNCHIKRAIIDKNARIGDNVKIINKDNVQEAARETDGYFIKSGIVIVIKDALIPSGIII

These results are taken from patent US20110078821A1.

Results are given in words; binding and its absence hold for the method and conditions named. In cells and extracts the contact can be indirect. Some binding calls cover weakened binding; strength is not graded here.

This experiment deals with T1, SH2 (maize endosperm AGPase large subunit, encoded by shrunken-2) (maize). Put plainly: co-purification of small and large subunit from E. coli, SDS-PAGE.
In the case of B1, the binding entry is recorded as “binds”. As to B2, the binding entry is “binds”.

In the case of B3, the binding entry was “binds”. For the molecule B4, the binding result was “binds”.
